Measurements: US8486898B2, “Compounds and method for inhibiting the activity of gelatinase and collagenase” (Taipei Medical University (TMU), priority 2010, dated 2013)
At least one structure is not confirmed: it was looked up by name or label, or the drawing left a doubt.

Tested on: Collagenase type IV
Test: Assay of Collagenase (DQ-gelatin fluorescence)
Type: biochemical
Details: DQ-gelatin substrate
Excerpt: Collagenase type IV and DQ-gelatin was applied in this experiment, where DQ^198 (EnzChek Gelatinase/Collagenase Assay Kit, E-12055) is a kind of fluorescent material, which can bonded with gelatin to form DQ-gelatin. […] Thus, the principle of this experiment is that the activity of collagenase is examined by measuring emission intensity of DQ fluorescent as that the chemical bonding between DQ-gelatin can be enzymatically digested by collagenase.
The fluorescence intensity can be measured in a florescence micro-plate reader equipped with standard fluoresce in filters. Digested product from the DQ-gelatin and DQ collagen substrate has absorption wavelength at 495 nm and fluorescence emission wavelength at 515 nm. Therefore, the activity of collagenase can be determined when the fluorescence emission intensity at 515 nm larger than the blank. In other word, the resulting fluorescence emission intensity would decrease at 515 nm if the collagenase inhibitors were applied. The results of collagenase assay are provided on Table 7, and all values are present as Mean±S.E.M.

SMILES: O=C(OCC1OC(OC(=O)c2cc(O)c(O)c(O)c2)C(OC(=O)c2cc(O)c(O)c(O)c2)C(OC(=O)c2cc(O)c(O)c(O)c2)C1OC(=O)c1ccc(O)cc1)c1cc(O)c(O)c(O)c1 [4GX, 1,2,3,6-tetra-O-galloyl-4-O-(4-hydroxybenzoyl)-β-D-glucopyranoside]
- Inhibitory effectiveness % (collagenase) (20 μM): 23.51%
- Inhibitory effectiveness % (collagenase) (40 μM): 47.50%
